Source: PubChem BioAssay AID504444 (National Center for Advancing Translational Sciences (NCATS), 2011)
Hit rate of the full screen: of about 360,000 compounds, about 7,500 (2.1%) were called active. This list was built around the results that the source calls inconclusive (neither active nor inactive); the mix of calls is not that of the screen. The call rests on the fitted dose curve; in most records, active means well fitted inhibition curve with a large enough effect; inconclusive means small, poorly fitted or top-dose-only effect, or effect the other way; inactive means flat fitted curve, though single readings scatter. Where the call is inconclusive, the potency comes from a doubtful curve fit.

Assay: Nrf2 qHTS screen for inhibitors; further: nearly all actives have a fitted effect of over 60% in size
Conditions: A549 ARE-Fluc reporter, luciferase luminescence, 18-24 h; series mostly up to 46 µM
Outline: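 Cells were seeded and rested 2 h, then exposed to compounds for 18-24 h. CellTiter-Fluor was read first as a viability measure. BugLite was added 15 min before the final luminescent read of ARE-luciferase activity in A549 cells.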
Potency means the concentration at half of the fitted maximal effect.

Compound | Potency
Cc1nc2nc(C)n(CCN3CCOCC3)c(=O)c2c(-c2cccc([N+](=O)[O-])c2)c1C(=O)CCCCCCCCCCN1CCC(c2ccccc2)(c2ccccc2)CC1 | inconclusive: 29.1 µM [falling, single point]
CCc1ccc(-c2c(C)sc(NC(C)=O)c2C(N)=O)cc1 | inconclusive: 18.4 µM [falling, single point]
NC(=O)NOCc1ccc(Cl)cc1Cl | inactive
Cc1ccccc1NC(=S)NC(NC(=O)c1ccccc1C)C(Cl)(Cl)Cl (centres undefined) | inconclusive: 32.6 µM [falling, single point]
CCOP(=O)(Nc1ccc2oc(=O)c3ccccc3c2c1)OCC | inconclusive: 29.1 µM [falling, single point]
O=[N+]([O-])c1cc(S(=O)(=O)Nc2ccccc2)ccc1N1CCN(c2ccccc2)CC1 | active: 18.4 µM
COC(=O)c1ccc2c(=O)n(CCCCCC(=O)O)c(=O)[nH]c2c1 | inactive
O=C(Nc1ccc2c(c1)OCCO2)c1ccccc1 | inconclusive: 0.326 µM [activator, full curve, poor fit]
Cc1ccc2cc(C#N)c(N3CCN(C(=O)c4ccccc4)CC3)nc2c1 | inconclusive: 13 µM [falling, partial curve, poor fit]
COc1ccc(C2NN=C(c3c[nH]c4ccccc34)C2O)cc1 (centres undefined) | inactive
COc1ccc(/C(O)=C2/C(=O)C(=O)N(c3ccccn3)C2c2cccc(Cl)c2)cc1 (centres undefined) | inconclusive: 20.6 µM [falling, single point]
CCCCc1nc2cc(C(=O)N(C)CCc3cn[nH]c3)ccc2o1 | inconclusive: 9.2 µM [activator, partial curve, poor fit]
CC(=O)c1ccc(N2CCN(S(=O)(=O)c3ccc4ccccc4c3)CC2)cc1 | inconclusive: 16.4 µM [falling, single point]
O=C(O)c1cc(O)c2c(c1)[C@H]([C@H]1c3cc(C(=O)O)cc(O)c3C(=O)c3c(O[C@@H]4O[C@H](CO)[C@@H](O)[C@H](O)[C@H]4O)cccc31)c1cccc(OC3O[C@H](CO)[C@@H](O)[C@H](O)[C@H]3O)c1C2=O (some centres undefined) | inconclusive: 18.4 µM [falling, partial curve, poor fit]
COc1ccc(-c2nc3ccc(NC(=O)CO)cc3c(=O)n2Cc2cccc(Cl)c2)cc1COc1ccc(NC(C)=O)cc1 | inconclusive: 23.1 µM [falling, partial curve]
O=C(CSC(=S)N1CCCCC1)Nc1nc(-c2ccccc2)c(-c2ccccc2)o1 | inconclusive: 29.1 µM [falling, single point]
Cc1cc(C)cc(NC(=O)C2(c3ccccc3)CC2(Cl)Cl)c1 (centres undefined) | inconclusive: 32.6 µM [falling, single point]
O=[N+]([O-])c1ccc(CSc2nnc(Cc3ccccc3)n2-c2ccc(F)cc2)cc1 | inconclusive: 25.9 µM [falling, partial curve, poor fit]
N#C/C(=C\c1ccc(N2CCOCC2)cc1)c1ccccc1 | inconclusive: 0.651 µM [activator, full curve]
C=CCOc1c(CNc2ccc(C(=O)O)cc2)cccc1OC | inactive
CN(CC(=O)Nc1ccc(F)cc1)c1ccc(S(=O)(=O)N2CCCCC2)cc1[N+](=O)[O-] | active: 13 µM
Cc1cccc(Cn2c(=O)n3nc(-c4ccccc4)nc3c3ccccc32)c1 | active: 14.6 µM

Compound | Potency
NN=C(NN=Cc1ccccc1)c1ccccc1 | inconclusive: 16.4 µM [activator, partial curve, poor fit]
Cc1ccc(-c2csc(NC(=O)CSc3nc(C)cs3)n2)cc1 | inconclusive: 25.9 µM [activator, single point]
CCC(C)NC(=O)c1cc2cc3ccc(OC)cc3nc2o1 (centres undefined) | inactive
CN(C)c1ccc(C2CC(c3cccc(NS(C)(=O)=O)c3)=NN2C(=O)c2ccccc2)cc1 (centres undefined) | active: 23.1 µM
CC(C)(C)c1ccc(C(=O)N/N=C/c2cccc(Cl)c2)cc1 | inconclusive: 29.1 µM [falling, single point]
COc1ccc(OCCCc2c(C)n[nH]c2C)cc1 | inconclusive: 29.1 µM [falling, single point]
CCOC(=O)C1CCN(c2ncnc3c2nc2n3CCCCC2)CC1 | inconclusive: 29.1 µM [falling, single point]
COc1cccc(NC(=O)COc2cccc3c2CCNC3=O)c1 | inconclusive: 4.11 µM [falling, partial curve, poor fit]
c1ccc(-c2cnnc(-c3ccccn3)n2)cc1 | inconclusive: 23.1 µM [activator, partial curve]
Cc1cccc(NC(=O)c2ccc(-c3ccccc3)s2)c1 | inconclusive: 14.6 µM [activator, partial curve]
CCOC(=O)N1CCC(N2Cc3cccc(C(=O)Nc4c(C)cccc4CC)c3C2=O)CC1 | inconclusive: 29.1 µM [falling, single point]
CCOC(=O)C1CCCN(C(=O)CCC(=O)Nc2ccc3nc(N4CCOCC4)cc(C)c3c2)C1 (centres undefined) | inconclusive: 13 µM [activator, partial curve, poor fit]
CCC(Oc1ccccc1)C(=O)Nc1nnc(S(=O)(=O)N(CC)CC)s1 (centres undefined) | inconclusive: 29.1 µM [activator, single point]
CN(CC(=O)Nc1ccccc1Cl)CC(=O)Nc1cccc2ccccc12 | inconclusive: 23.1 µM [falling, partial curve, poor fit]
Cc1c(C(=O)Nc2ccc(Cl)cn2)oc2ccccc12 | inconclusive: 4.11 µM [activator, full curve, poor fit]
CCN(CC)CCNC(=O)c1ccc(NC(=O)/C=C/c2ccc3ccccc3n2)cc1 | inconclusive: 5.8 µM [falling, partial curve, poor fit]
O=C(Nc1ncccn1)c1cccc(Cl)c1 | inactive
CC[C@]12c3[nH]c4ccc(OC)cc4c3CCN1C(=O)C(CC(=O)NC/C=C(\C)CCC=C(C)C)C[C@@H]2C(=O)N1CCN(C(=O)C2CC2)CC1 (some centres undefined) | inconclusive: 23.1 µM [falling, single point]
CCCCNC1C(CC)C(CCC)C(C#N)(C#N)C1(C#N)C#N (centres undefined) | inconclusive: 16.4 µM [falling, partial curve, poor fit]
Cc1cccc(OC(C)C(=O)Nc2cc(S(=O)(=O)N3CCCCC3)ccc2C)c1 (centres undefined) | inconclusive: 23.1 µM [falling, single point]
O=C(Nc1cccc(S(=O)(=O)Nc2ccccc2F)c1)c1ccc2ccccc2n1 | inconclusive: 29.1 µM [falling, single point]
O=C(COc1ccccc1Cl)Nc1nc(-c2ccncc2)cs1 | inconclusive: 18.4 µM [falling, partial curve]

Four records picked at random from the list so far:
Compound | Potency
O=C(Nc1ncccn1)c1cccc(Cl)c1 | inactive
COc1cccc(NC(=O)COc2cccc3c2CCNC3=O)c1 | inconclusive: 4.11 µM [falling, partial curve, poor fit]
CC(C)(C)c1ccc(C(=O)N/N=C/c2cccc(Cl)c2)cc1 | inconclusive: 29.1 µM [falling, single point]
Cc1cccc(NC(=O)c2ccc(-c3ccccc3)s2)c1 | inconclusive: 14.6 µM [activator, partial curve]

Some of these compounds in order of heavy-atom count, low to high:
Compound | Potency
N#C/C(=C\c1ccc(N2CCOCC2)cc1)c1ccccc1 | inconclusive: 0.651 µM [activator, full curve]
CCCCNC1C(CC)C(CCC)C(C#N)(C#N)C1(C#N)C#N (centres undefined) | inconclusive: 16.4 µM [falling, partial curve, poor fit]
CCOC(=O)N1CCC(N2Cc3cccc(C(=O)Nc4c(C)cccc4CC)c3C2=O)CC1 | inconclusive: 29.1 µM [falling, single point]

(next part)

Compound | Potency
CCC1CCCCN1CCCNC(=O)Cn1ncn2nc(-c3ccc(OC)cc3)cc2c1=O (centres undefined) | inconclusive: 29.1 µM [activator, single point]
COCCn1c(SCc2nc3ccccc3c(=O)[nH]2)nc2ccccc2c1=O | inconclusive: 5.17 µM [falling, partial curve, poor fit]
CCc1ccc(NC(=O)c2ccc(-c3ccccc3)s2)cc1 | inconclusive: 20.6 µM [activator, partial curve]
O=[N+]([O-])c1ccc(N=NN(CCO)CCO)cc1 | inactive
Cc1ccccc1N1CCN(C(=O)CN2C(=O)c3ccccc3C2=O)CC1 | inconclusive: 2.31 µM [activator, full curve, poor fit]
CCC(=O)Nc1cc(C(=O)O)ccc1Sc1ccc(Cl)cc1 | inconclusive: 13 µM [falling, partial curve, poor fit]
O=C(CC1C[C@H](C(=O)N2CCCCC2)[C@@]2(CCc3ccccc3)c3[nH]c4ccccc4c3CCN2C1=O)NCc1cccc(C(F)(F)F)c1 (some centres undefined) | inconclusive: 29.1 µM [falling, single point]
CCOC(=O)c1c(-c2ccc(C)cc2)csc1/N=C/N(C)C | inactive
O=C(Nc1cccnc1)c1ccc(COc2ccccc2Br)o1 | active: 6.51 µM
CC(=O)N(C1=C(N2CCOCC2)C(=O)c2ccccc2C1=O)c1ccc(C(=O)O)cc1 | inconclusive: 20.6 µM [falling, partial curve, poor fit]
O=C(NCC(c1cccnc1)N1CCc2ccccc21)c1cccc(Br)c1 (centres undefined) | active: 16.4 µM
O=C(Nc1cccnc1)c1cc2cc(Br)ccc2o1 | inconclusive: 20.6 µM [activator, partial curve]
Cn1nc(C(=O)Nc2cccc(Cl)c2)cc1C(=O)Nc1cccc(Cl)c1 | active: 13 µM
CC(C)NC(=O)C1CCC(Cn2c(=O)c3sccc3n(Cc3ccc(F)cc3)c2=O)CC1 (centres undefined) | inactive
NC(=O)C1CN(C(=O)c2cccc(S(=O)(=O)N3CCc4ccccc43)c2)c2ccccc2O1 (centres undefined) | inconclusive: 20.6 µM [falling, partial curve, poor fit]
c1ccc(OCCOCCN2CCN(C(c3ccccc3)c3ccccc3)CC2)cc1 | inconclusive: 29.1 µM [falling, single point]
CC(C)NC(=O)N1CCCN(c2nc3ccc(Cl)cc3s2)CC1 | inconclusive: 16.4 µM [falling, partial curve]
S=C(NCC1CCCO1)N1CCN(c2ccccc2)CC1 (centres undefined) | inactive
COc1cccc(CNS(=O)(=O)c2ccc3c(c2)CC(C)N3C(C)=O)c1 (centres undefined) | inactive
COc1ccc(-c2ccc3c(c2)[C@@H]2C[C@H](N(C)S(=O)(=O)c4ccccc4)[C@H]([C@H](C)O)C(=O)N2CC3)cc1 | inactive
